Measurements: US20120208209A1
Results are given in words; binding and its absence hold for the method and conditions named. Some results given as binding are weak or reduced against the parent protein; the word gives no strength.

Amino acid sequences for entries named in this document (tags omitted). Residues count along the entry.
UniProt Q8NBP7, residues 31-692: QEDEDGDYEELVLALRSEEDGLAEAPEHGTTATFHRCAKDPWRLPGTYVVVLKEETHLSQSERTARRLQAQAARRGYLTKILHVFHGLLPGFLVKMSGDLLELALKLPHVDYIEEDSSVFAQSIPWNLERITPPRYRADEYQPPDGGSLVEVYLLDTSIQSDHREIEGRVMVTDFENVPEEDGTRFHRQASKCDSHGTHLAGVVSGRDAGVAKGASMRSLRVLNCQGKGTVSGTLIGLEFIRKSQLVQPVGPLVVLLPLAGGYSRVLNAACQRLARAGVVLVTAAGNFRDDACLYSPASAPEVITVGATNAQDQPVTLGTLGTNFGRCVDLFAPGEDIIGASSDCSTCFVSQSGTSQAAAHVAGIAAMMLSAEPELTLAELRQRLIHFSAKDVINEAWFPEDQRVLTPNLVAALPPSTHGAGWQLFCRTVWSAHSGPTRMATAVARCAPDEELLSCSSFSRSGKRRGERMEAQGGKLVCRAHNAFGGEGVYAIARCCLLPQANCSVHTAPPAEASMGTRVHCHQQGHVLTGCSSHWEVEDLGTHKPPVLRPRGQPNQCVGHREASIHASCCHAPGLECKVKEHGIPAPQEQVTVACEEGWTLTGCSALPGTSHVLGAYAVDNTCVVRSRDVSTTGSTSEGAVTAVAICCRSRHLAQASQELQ

B1: AX213 Fab (Fab, V domains shown)
VH: QVQLLESGGGLVQPGGSLRLSCKASGYTFSRYGINWVRQAPGKGLEWIGRIDPGNGGTRYNEKFKGKATISRDNSKNTLYLQMNSLRAEDTAVYYCARANDGYSFDYWGQGTLVTVSS
VL: EIVLTQSPATLSLSPGERATITCRASQYVGSYLNWYQQKPGQAPRLLIYDASNRATGIPARFSGSGSGTDFTLTISSLEPEDFAVYYCQVWDSSPPVVFGGGTKVEIKR
B2: AX1 Fab (Fab, V domains shown)
VH: EVQLLESGGGLVQPGGSLRLSCKASGFTFTSYYMHWVRQAPGKGLEWIGRINPDSGSTKYNEKFKGRATISRDNSKNTLYLQMNSLRAEDTAVYYCARGGRLSWDFDVWGQGTLVTVSS
VL: DIQMTQSPSSLSASVGDRVTITCRASQDISRYLAWYQQKPGKAPKLLIYAASSLQSGVPSRFSGSGSGTDFTLTISSLQPEDFATYYCAAYDYSLGGYVFGDGTKVEIKR

Target: human PCSK9 (human) (UniProt Q8NBP7)
Test: ELISA, purified soluble Fab on coated PCSK9

Binder | binding
B1 | binds
B2 | binds
